Reference: EPA's CvTdb concentration-time database
The source gives many values for each of these; only a part stands here.

How the values were obtained:
Assay in all cases: concentration in plasma after dosing
Mouse [1] = settings: 4 h; dosed: 2-Hydroxy-4-methoxybenzophenone; 500 mg/kg; oral; Female; B6C3F1
Mouse [2] = settings: 8 h; dosed: 2-Hydroxy-4-methoxybenzophenone; 500 mg/kg; oral; Female; B6C3F1
Mouse [3] = settings: 8 h; dosed: 2-Hydroxy-4-methoxybenzophenone; 50 mg/kg; iv; Male; B6C3F1
Mouse [4] = settings: 12 h; dosed: 2-Hydroxy-4-methoxybenzophenone; 50 mg/kg; iv; Male; B6C3F1
Mouse [5] = settings: 6 h; dosed: 2-Hydroxy-4-methoxybenzophenone; 50 mg/kg; iv; Male; B6C3F1
Rat [6] = settings: dosed: 2-Hydroxy-4-methoxybenzophenone, 100 mg/kg, oral, Male, F344
Rat [7] = settings: dosed: 2-Hydroxy-4-methoxybenzophenone, 8 mg/kg, iv, Female, F344
Mouse [8] = settings: 5 h; dosed: 2-Hydroxy-4-methoxybenzophenone; 250 mg/kg; oral; Male; B6C3F1
Mouse [9] = settings: 0.5 h; dosed: 2-Hydroxy-4-methoxybenzophenone; 50 mg/kg; iv; Female; B6C3F1
Mouse [10] = settings: 1.5 h; dosed: 2-Hydroxy-4-methoxybenzophenone; 250 mg/kg; oral; Male; B6C3F1
Mouse [11] = settings: 1.5 h; dosed: 2-Hydroxy-4-methoxybenzophenone; 50 mg/kg; iv; Male; B6C3F1
Mouse [12] = settings: 5 min; dosed: 2-Hydroxy-4-methoxybenzophenone; 250 mg/kg; oral; Male; B6C3F1
Mouse [13] = settings: dosed: 2-Hydroxy-4-methoxybenzophenone, 100 mg/kg, oral, Female, B6C3F1
Mouse [14] = settings: 4 h; dosed: 2-Hydroxy-4-methoxybenzophenone; 250 mg/kg; oral; Female; B6C3F1
Mouse [15] = settings: 6 h; dosed: 2-Hydroxy-4-methoxybenzophenone; 50 mg/kg; iv; Male; B6C3F1; remark: listed apart in the source
Mouse [16] = settings: 16 h; dosed: 2-Hydroxy-4-methoxybenzophenone; 50 mg/kg; iv; Male; B6C3F1
Mouse [17] = settings: 2.5 min; dosed: 2-Hydroxy-4-methoxybenzophenone; 250 mg/kg; oral; Female; B6C3F1
Mouse [18] = settings: 6 h; dosed: 2-Hydroxy-4-methoxybenzophenone; 50 mg/kg; iv; Female; B6C3F1
Rat [19] = settings: dosed: Perfluorohexanoic Acid, 40 mg/kg, oral, Female, Harlan Sprague Dawley
Rat [20] = settings: dosed: Perfluorohexanoic Acid, 40 mg/kg, oral, Male, Harlan Sprague Dawley
Rat [21] = settings: dosed: Perfluorohexanoic Acid, 160 mg/kg, oral, Female, Harlan Sprague Dawley
Rat [22] = settings: 1 h; dosed: Perfluorohexanoic Acid; 40 mg/kg; Male; F344
Rat [23] = settings: dosed: Perfluorohexanoic Acid, 40 mg/kg, Male, F344
Rat [24] = settings: dosed: Perfluorohexanoic Acid, 80 mg/kg, oral, Female, Harlan Sprague Dawley
Rat [25] = settings: 5 min; dosed: 2-Hydroxy-4-methoxybenzophenone; 8 mg/kg; iv; Male; F344
Mouse [26] = settings: 4 h; dosed: 2-Hydroxy-4-methoxybenzophenone; 500 mg/kg; oral; Male; B6C3F1
Rat [27] = settings: 0.5 h; dosed: 2-Hydroxy-4-methoxybenzophenone; 8 mg/kg; iv; Male; F344
Rat [28] = settings: dosed: 2-Hydroxy-4-methoxybenzophenone, 250 mg/kg, oral, Female, F344
Rat [29] = settings: 2 h; dosed: 2-Hydroxy-4-methoxybenzophenone; 100 mg/kg; oral; Female; F344
Rat [30] = settings: 2 h; dosed: 2-Hydroxy-4-methoxybenzophenone; 100 mg/kg; oral; Male; F344
Mouse [31] = settings: 1 h; dosed: 2-Hydroxy-4-methoxybenzophenone; 50 mg/kg; iv; Male; B6C3F1
Rat [32] = settings: dosed: 2-Hydroxy-4-methoxybenzophenone, 100 mg/kg, oral, Female, F344
Mouse [33] = settings: 1.5 h; dosed: 2-Hydroxy-4-methoxybenzophenone; 50 mg/kg; iv; Male; B6C3F1; remark: listed apart in the source
Rat [34] = settings: dosed: 2-Hydroxy-4-methoxybenzophenone, 250 mg/kg, oral, Female, F344; remark: listed apart in the source

Work on `COc1ccc(C(=O)c2ccccc2)c(O)c1` [2-Hydroxy-4-methoxybenzophenone] yielded a concentration in plasma (Mouse [1]) of 147 ng/mL, a concentration in plasma (Mouse [2]) of 19.5 ng/mL and a concentration in plasma (Mouse [3]) of 20.5 ng/mL. It also gave a concentration in plasma (Mouse [4]) of 10.7 ng/mL, a concentration in plasma (Mouse [5]) of 54.8 ng/mL and a concentration in plasma (Rat [6]; 5 min) of 47.4 ng/mL. For the same molecule, the concentration in plasma (Rat [6]; 0.5 h) was 419 ng/mL, the concentration in plasma (Rat [6]; 1 h) was 152 ng/mL and the concentration in plasma (Rat [6]; 1.5 h) was 93.7 ng/mL. The concentration in plasma (Rat [6]; 2 h) was 24.6 ng/mL, the concentration in plasma (Rat [6]; 5 h) was 16.2 ng/mL and the concentration in plasma (Rat [6]; 6 h) was 11.1 ng/mL. The concentration in plasma (Rat [6]; 8 h) was 11.9 ng/mL, the concentration in plasma (Rat [7]; 5 min) was 1070 ng/mL and the concentration in plasma (Rat [7]; 10 h) was 30.7 ng/mL. It also gave a concentration in plasma (Mouse [8]) of 11.3 ng/mL, a concentration in plasma (Mouse [9]) of 2070 ng/mL and a concentration in plasma (Mouse [10]) of 113 ng/mL. For the same molecule, the concentration in plasma (Mouse [11]) was 431 ng/mL, the concentration in plasma (Mouse [12]) was 35.9 ng/mL and the concentration in plasma (Mouse [13]; 5 min) was 40.7 ng/mL. The concentration in plasma (Mouse [13]; 0.5 h) was 40.8 ng/mL, the concentration in plasma (Mouse [13]; 0.75 h) was 118 ng/mL and the concentration in plasma (Mouse [13]; 1 h) was 37.1 ng/mL. The concentration in plasma (Mouse [13]; 1.5 h) was 19 ng/mL, the concentration in plasma (Mouse [13]; 5 h) was 7.31 ng/mL and the concentration in plasma (Mouse [13]; 6 h) was 39.9 ng/mL. The concentration in plasma (Mouse [14]) was 19.5 ng/mL, the concentration in plasma (Mouse [15]) was 38.6 ng/mL and the concentration in plasma (Mouse [16]) was 7.13 ng/mL. The concentration in plasma (Mouse [17]) was 37300 ng/mL and the concentration in plasma (Mouse [18]) was 51.1 ng/mL.
In the case of `O=C(O)C(F)(F)C(F)(F)C(F)(F)C(F)(F)C(F)(F)F` [Perfluorohexanoic Acid], the concentration in plasma (Rat [19]; 0.75 h) was 27000 ng/mL, the concentration in plasma (Rat [19]; 12 h) was 135 ng/mL and the concentration in plasma (Rat [20]; 0.25 h) was 33800 ng/mL. For the same molecule, the concentration in plasma (Rat [20]; 6 h) was 10500 ng/mL, the concentration in plasma (Rat [21]; 0.25 h) was 131000 ng/mL and the concentration in plasma (Rat [21]; 6 h) was 21100 ng/mL. It also gave a concentration in plasma (Rat [22]) of 52600 ng/mL, a concentration in plasma (Rat [23]; 0.5 h) of 118000 ng/mL and a concentration in plasma (Rat [23]; 12 h) of 507 ng/mL. For the same molecule, the concentration in plasma (Rat [24]; 0.25 h) was 97900 ng/mL and the concentration in plasma (Rat [24]; 24 h) was 56.1 ng/mL.
`O=C(c1ccccc1)c1ccc(O)cc1O` [2,4-Dihydroxybenzophenone] was tested, and the concentration in plasma (Rat [25]) was 88.5 ng/mL, the concentration in plasma (Mouse [26]) was 320 ng/mL and the concentration in plasma (Rat [27]) was 43 ng/mL. The concentration in plasma (Rat [28]; 0.5 h) was 393 ng/mL, the concentration in plasma (Rat [28]; 10 h) was 83 ng/mL and the concentration in plasma (Rat [29]) was 71.2 ng/mL. It also gave a concentration in plasma (Rat [30]) of 81.7 ng/mL, a concentration in plasma (Mouse [31]) of 354 ng/mL and a concentration in plasma (Rat [32]; 5 min) of 47.2 ng/mL. For the same molecule, the concentration in plasma (Rat [32]; 2 h) was 78 ng/mL, the concentration in plasma (Mouse [33]) was 323 ng/mL and the concentration in plasma (Rat [34]; 1.5 h) was 566 ng/mL. The concentration in plasma (Rat [34]; 8 h) was 132 ng/mL.
